Laboratory results: publication PMC10968680, “FHND004 inhibits malignant proliferation of multiple myeloma by targeting PDZ-binding kinase in MAPK pathway” (Aging (Albany NY), 2024)
Results are given in words; binding and its absence hold for the method and conditions named. In cells and extracts the contact can be indirect. Some entries that bind do so weakly or less than the wild type. Sequences can lack the tags named with a protein.

By UniProt entry, the sequences of proteins in these tests, tags left out.
UniProt P27361: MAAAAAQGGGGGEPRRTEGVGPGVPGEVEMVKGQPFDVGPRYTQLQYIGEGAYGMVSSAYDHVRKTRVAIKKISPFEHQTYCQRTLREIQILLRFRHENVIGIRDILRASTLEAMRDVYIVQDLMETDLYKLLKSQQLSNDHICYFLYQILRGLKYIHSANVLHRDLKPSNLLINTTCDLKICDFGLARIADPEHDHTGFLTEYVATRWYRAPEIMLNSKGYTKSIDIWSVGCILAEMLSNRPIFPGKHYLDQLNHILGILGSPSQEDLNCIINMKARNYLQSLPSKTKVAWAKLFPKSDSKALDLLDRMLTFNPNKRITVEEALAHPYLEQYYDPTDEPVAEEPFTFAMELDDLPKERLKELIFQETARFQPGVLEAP
UniProt P28482: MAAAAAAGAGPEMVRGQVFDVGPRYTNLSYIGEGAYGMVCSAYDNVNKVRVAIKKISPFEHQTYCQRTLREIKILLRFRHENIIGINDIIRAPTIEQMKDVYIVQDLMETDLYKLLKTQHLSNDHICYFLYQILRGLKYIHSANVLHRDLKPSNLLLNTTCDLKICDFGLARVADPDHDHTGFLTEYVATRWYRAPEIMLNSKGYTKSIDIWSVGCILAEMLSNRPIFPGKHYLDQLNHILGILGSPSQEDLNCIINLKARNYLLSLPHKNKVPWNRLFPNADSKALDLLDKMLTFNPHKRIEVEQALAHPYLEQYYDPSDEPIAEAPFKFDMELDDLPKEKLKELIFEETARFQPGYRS

Molecular target: T1, PDZ-binding kinase (PBK), Flag-tagged, stably overexpressed in H929 cells (PBK-OE) (human) (UniProt Q96KB5)
T1 sequence: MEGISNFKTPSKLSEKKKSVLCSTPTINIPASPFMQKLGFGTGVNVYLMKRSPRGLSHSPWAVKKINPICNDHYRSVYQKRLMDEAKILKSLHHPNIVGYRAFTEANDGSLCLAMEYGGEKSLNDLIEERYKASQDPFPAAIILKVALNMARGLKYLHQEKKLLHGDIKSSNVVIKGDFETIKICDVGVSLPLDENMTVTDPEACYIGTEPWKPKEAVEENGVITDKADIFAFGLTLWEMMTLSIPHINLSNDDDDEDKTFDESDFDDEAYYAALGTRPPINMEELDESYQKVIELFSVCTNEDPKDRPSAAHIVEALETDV
Assay: co-IP; H929 PBK-OE cells, RIPA lysate with protease inhibitor, Pierce Direct Magnetic IP/Co-IP kit; cells with or without FHND004 (4 uM); p-ERK1/2 detected by Western blot

binding | Substance
binds | phosphorylated ERK1 (the ERK1 member of p-ERK1/2) (from UniProt P27361 1-379) (enzyme)
binds | phosphorylated ERK2 (the ERK2 member of p-ERK1/2) (from UniProt P28482 1-360) (enzyme)
